# According to the supplement of paper PMC10849652:
# By UniProt entry, the sequences of proteins in these tests, tags left out. Where a name states a change or a piece, a line headed by the entry shows the natural chain unless it says otherwise.
# UniProt P30260, whole entry, looked up: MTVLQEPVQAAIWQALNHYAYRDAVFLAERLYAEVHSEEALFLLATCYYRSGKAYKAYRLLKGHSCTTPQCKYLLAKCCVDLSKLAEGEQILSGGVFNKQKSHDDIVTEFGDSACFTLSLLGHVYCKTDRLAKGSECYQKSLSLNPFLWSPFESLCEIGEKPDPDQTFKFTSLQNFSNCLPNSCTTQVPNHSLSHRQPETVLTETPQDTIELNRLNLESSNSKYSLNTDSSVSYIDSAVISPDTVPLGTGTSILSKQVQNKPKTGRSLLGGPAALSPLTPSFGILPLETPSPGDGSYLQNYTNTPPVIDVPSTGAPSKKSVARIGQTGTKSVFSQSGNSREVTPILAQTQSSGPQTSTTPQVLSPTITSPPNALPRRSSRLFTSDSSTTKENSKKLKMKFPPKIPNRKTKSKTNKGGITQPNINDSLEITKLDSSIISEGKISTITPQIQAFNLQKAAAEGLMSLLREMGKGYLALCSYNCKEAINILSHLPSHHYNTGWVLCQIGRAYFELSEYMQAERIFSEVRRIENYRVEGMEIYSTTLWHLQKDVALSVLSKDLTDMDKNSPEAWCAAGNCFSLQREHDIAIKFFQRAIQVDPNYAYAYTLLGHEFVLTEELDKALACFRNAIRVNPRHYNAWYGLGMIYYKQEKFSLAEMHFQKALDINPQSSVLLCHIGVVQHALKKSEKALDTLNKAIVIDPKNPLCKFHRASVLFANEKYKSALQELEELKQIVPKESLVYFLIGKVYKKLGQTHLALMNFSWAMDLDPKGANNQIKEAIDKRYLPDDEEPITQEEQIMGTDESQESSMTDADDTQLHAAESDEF
# UniProt P60953, whole entry, looked up: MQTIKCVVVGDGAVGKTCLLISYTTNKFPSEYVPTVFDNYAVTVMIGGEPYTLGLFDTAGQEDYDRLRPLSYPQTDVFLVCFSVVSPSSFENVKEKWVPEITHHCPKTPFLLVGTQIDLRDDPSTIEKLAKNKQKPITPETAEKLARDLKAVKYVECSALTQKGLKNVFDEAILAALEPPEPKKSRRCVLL
# UniProt Q96FF9: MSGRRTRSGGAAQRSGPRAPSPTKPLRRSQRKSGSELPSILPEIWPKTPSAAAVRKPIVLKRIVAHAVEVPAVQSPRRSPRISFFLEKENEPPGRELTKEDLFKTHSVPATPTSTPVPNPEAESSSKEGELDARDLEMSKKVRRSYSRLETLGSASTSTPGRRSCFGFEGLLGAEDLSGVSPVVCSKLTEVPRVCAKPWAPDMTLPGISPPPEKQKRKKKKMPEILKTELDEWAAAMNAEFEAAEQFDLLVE
# UniProt Q01850: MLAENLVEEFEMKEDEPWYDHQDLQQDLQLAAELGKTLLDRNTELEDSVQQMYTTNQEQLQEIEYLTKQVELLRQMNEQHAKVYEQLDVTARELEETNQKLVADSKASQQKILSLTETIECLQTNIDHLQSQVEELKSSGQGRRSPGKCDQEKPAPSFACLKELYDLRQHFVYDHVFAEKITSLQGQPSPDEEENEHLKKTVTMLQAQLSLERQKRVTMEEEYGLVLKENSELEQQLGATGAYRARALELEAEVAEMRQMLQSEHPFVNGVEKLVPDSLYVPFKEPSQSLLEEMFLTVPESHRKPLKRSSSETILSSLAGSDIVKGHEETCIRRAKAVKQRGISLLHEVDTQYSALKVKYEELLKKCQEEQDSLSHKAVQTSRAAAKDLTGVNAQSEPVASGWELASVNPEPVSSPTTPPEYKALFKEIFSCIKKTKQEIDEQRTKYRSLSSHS
# UniProt Q9NYV4, whole entry, looked up: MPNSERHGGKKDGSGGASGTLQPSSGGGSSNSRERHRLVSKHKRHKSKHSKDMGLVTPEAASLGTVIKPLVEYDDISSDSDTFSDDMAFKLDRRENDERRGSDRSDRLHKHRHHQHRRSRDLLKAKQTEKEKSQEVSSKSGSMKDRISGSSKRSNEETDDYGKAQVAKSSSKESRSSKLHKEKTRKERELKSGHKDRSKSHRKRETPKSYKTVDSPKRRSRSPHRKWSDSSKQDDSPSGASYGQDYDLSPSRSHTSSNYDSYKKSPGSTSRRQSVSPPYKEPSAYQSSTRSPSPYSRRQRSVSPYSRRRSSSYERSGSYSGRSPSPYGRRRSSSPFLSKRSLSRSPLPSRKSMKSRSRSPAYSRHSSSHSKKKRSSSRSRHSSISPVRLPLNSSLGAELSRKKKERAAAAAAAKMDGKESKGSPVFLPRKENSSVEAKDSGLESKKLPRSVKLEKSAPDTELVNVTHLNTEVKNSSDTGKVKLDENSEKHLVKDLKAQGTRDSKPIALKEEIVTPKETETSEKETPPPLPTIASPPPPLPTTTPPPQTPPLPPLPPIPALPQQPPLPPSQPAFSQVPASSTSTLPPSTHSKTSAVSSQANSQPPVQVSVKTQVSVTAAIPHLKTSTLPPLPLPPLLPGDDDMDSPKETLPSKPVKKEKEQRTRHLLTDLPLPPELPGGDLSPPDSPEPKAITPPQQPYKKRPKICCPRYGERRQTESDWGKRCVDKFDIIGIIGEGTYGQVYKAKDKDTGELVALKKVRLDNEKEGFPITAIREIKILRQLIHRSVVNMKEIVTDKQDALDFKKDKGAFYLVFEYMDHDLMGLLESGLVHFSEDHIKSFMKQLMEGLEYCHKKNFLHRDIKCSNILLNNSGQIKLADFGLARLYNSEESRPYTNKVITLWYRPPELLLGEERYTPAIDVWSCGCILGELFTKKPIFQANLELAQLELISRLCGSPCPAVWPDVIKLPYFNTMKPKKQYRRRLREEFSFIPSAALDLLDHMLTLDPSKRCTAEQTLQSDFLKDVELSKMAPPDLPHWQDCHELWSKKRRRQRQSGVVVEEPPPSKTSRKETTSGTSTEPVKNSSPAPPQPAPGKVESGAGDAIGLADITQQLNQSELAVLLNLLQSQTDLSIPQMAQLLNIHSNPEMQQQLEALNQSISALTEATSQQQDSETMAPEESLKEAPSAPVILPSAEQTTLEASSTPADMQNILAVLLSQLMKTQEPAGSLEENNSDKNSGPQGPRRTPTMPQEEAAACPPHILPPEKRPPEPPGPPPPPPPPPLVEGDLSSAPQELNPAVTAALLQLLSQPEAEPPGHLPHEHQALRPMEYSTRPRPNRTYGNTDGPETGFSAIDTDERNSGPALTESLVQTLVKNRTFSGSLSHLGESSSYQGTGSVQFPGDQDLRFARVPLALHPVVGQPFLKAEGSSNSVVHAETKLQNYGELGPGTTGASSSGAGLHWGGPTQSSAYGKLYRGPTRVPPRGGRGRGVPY
# UniProt Q9H3R5: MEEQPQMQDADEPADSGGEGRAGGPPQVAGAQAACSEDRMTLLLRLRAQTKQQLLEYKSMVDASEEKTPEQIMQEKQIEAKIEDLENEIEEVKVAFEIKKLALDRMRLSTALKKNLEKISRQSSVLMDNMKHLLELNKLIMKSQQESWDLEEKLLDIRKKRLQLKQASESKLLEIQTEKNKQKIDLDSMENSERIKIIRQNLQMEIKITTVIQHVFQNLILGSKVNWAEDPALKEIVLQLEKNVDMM
# UniProt O00311: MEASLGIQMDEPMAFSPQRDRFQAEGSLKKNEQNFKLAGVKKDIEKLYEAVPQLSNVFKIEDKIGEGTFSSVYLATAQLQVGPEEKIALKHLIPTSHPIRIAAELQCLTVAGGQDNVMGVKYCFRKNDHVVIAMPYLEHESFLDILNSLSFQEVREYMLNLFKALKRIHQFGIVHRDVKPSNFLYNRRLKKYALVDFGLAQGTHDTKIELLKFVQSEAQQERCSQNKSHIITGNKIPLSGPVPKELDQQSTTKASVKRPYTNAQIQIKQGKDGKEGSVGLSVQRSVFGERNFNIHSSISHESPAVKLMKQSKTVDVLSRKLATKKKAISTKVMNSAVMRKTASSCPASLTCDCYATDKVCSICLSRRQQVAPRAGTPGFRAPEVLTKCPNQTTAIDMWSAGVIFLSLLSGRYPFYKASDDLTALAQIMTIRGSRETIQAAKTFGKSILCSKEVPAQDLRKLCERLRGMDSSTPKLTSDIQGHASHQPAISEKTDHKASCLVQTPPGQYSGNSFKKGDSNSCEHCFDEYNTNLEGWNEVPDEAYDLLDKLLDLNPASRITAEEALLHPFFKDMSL
# UniProt Q8NHZ8, whole entry, looked up: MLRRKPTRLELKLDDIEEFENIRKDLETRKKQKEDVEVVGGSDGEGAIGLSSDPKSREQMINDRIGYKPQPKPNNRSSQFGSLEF
# UniProt Q9Y6A4: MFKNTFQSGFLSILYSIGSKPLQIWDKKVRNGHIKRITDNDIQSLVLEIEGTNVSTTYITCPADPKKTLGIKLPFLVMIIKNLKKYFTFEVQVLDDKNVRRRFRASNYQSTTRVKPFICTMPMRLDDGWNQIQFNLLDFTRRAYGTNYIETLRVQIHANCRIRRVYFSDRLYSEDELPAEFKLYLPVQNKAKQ
# UniProt Q6ZMG9: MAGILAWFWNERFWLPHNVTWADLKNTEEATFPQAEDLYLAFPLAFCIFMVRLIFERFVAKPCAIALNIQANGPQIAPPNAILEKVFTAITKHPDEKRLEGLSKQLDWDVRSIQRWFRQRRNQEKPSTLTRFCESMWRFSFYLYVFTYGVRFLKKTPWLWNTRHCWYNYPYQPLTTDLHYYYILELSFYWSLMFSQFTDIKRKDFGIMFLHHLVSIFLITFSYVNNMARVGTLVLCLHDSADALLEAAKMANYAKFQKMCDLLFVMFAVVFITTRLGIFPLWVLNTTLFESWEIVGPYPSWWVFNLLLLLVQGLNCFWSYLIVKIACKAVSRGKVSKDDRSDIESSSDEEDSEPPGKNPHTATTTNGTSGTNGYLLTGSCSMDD
# UniProt P49427: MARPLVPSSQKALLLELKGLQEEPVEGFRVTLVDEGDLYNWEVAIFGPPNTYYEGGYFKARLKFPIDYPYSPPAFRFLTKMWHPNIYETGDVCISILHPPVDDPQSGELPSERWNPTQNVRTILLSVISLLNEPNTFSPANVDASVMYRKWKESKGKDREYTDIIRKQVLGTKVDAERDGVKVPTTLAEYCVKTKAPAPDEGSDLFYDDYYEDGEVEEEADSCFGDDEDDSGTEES
# UniProt Q9H5V8, whole entry, looked up: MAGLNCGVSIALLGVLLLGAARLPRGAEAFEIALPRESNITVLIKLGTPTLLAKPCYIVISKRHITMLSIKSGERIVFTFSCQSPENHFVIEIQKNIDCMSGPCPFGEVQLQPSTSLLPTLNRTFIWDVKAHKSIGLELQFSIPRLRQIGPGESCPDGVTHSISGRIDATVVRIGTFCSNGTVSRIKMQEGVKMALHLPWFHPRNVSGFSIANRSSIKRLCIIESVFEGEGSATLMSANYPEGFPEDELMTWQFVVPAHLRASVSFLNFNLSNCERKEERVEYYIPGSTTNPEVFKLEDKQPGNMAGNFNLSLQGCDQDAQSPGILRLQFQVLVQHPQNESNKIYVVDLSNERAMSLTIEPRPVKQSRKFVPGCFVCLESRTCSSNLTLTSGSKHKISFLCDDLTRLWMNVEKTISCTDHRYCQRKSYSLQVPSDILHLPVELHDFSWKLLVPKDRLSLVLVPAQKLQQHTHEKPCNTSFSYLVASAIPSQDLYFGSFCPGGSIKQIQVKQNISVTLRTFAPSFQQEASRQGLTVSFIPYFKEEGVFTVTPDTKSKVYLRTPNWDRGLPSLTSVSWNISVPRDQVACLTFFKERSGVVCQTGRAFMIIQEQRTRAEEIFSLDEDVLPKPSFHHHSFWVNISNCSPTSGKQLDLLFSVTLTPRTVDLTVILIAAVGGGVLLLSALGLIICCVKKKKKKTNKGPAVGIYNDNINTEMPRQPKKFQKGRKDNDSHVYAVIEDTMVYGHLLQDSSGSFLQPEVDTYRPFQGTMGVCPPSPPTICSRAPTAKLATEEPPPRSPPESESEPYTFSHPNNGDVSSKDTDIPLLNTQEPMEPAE
# UniProt O14519: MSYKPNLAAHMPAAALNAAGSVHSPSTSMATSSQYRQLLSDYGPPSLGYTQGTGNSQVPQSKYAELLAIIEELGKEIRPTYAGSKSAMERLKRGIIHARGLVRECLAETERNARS
# The other results are listed elsewhere or left out.
# Assays:
# Assay in all cases: log2 fold change, soluble protein after heating vs DMSO (PISA); higher = thermal stabilisation; K562 lysate, 10 uM; active = over 0.2 and 3.5 SD of the protein, either way, in both replicates (recomputed)
# ibrutinib = compound: C=CC(=O)N1CCC[C@@H](n2nc(-c3ccc(Oc4ccccc4)cc3)c3c(N)ncnc32)C1 [ibrutinib]
# How it was run: (§1)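 A 30 min treatment with 10 μM compound was applied to crude K562 extract at 1 mg/mL protein in PBS pH 7.4 with 1 mM MgCl2. Heating for 3 min spanned 48°C-58°C, after which aliquots were pooled, adjusted to 0.5% NP-40 at 4°C and spun at 21,000xg for 90 min. TMTpro 16plex LC-MS/MS of the supernatant, with channel sums equalised, gave values recorded as log-two fold change in thermal stability against solvent controls, from duplicates.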
# [1] = compound: CC(=O)c1cnc2ccc(-c3cc(Cl)c(O)c(Cl)c3)nc2c1N[C@H]1CC[C@H](CN(C)C)CC1
# How it was run: as §1
# ralimetinib = compound: CC(C)(C)Cn1c(N)nc2ccc(-c3[nH]c(C(C)(C)C)nc3-c3ccc(F)cc3)nc21 [ralimetinib]
# How it was run: as §1
# [2] = compound: CC(C)(O)CC(=O)NCCn1ccc2ncnc(Nc3ccc(Oc4cccc(C(F)(F)F)c4)c(Cl)c3)c21
# How it was run: as §1
# [3] = compound: CC(C)C1=C2N=C(C=C(N2N=C1)NCC3=CC=CC=C3)NCCCCCCN
# How it was run: as §1
# [4] = compound: CC1=C(C(CC(=O)N1)C2=CC=C(C=C2)C(F)(F)F)C(=O)NC3=C(C=C4C(=C3)C=NN4)F
# How it was run: as §1
# [5] = compound: CC1=C(C2=C(C=C1)C(=O)C3=CC=CC=C3N2CCCN)C
# How it was run: as §1
# [6] = compound: CC1=C(C=C(C=C1)NC(=O)C2=CC(=CC=C2)C(C)(C)C#N)NC3=CC4=C(C=C3)N=CN(C4=O)C
# How it was run: as §1
# [7] = compound: CC1=C(C=C(C=C1)NC(=O)C2=CC(=CC=C2)N(C)C)NC(=O)C3=CC=C(C=C3)O
# How it was run: as §1
# [8] = compound: CC1=CC=C(C=C1)SC2=C3C=C(SC3=CN=C2)C(=O)N
# How it was run: as §1
Target,log2 fold change (ibrutinib),log2 fold change [1],log2 fold change (ralimetinib),log2 fold change [2],log2 fold change [3],log2 fold change [4],log2 fold change [5],log2 fold change [6],log2 fold change [7],log2 fold change [8]
CDC27 isoform 2 (UniProt P30260),inactive: -0.012,inactive: -0.018,inactive: 0.009,inactive: 0.004,inactive: -0.005,inactive: -0.015,inactive: -0.007,inactive: 0.014,inactive: -0.02,inactive: 0.028
CDC42 isoform 1 (UniProt P60953),inactive: -0.011,inactive: -0.022,inactive: -0.02,inactive: -0.049,inactive: -0.017,inactive: -0.037,inactive: 0,inactive: 0.081,inactive: -0.017,inactive: -0.041
CDCA5 (UniProt Q96FF9),inactive: 0.046,inactive: -0.042,inactive: 0.04,inactive: 0.072,inactive: 0.049,inactive: -0.055,inactive: -0.024,inactive: 0.232,inactive: -0.047,inactive: 0.056
CDR2 (UniProt Q01850),inactive: 0.057,inactive: -0.024,inactive: 0.022,inactive: -0.034,inactive: 0.016,inactive: 0.004,inactive: 0.008,inactive: 0.022,inactive: 0.016,inactive: 0.081
CDK12 (UniProt Q9NYV4),inactive: 0.028,inactive: -0.025,inactive: 0.004,inactive: -0.038,inactive: 0.054,inactive: -0.067,inactive: -0.039,inactive: 0.007,inactive: -0.003,inactive: 0.001
CENPH (UniProt Q9H3R5),inactive: -0.025,inactive: 0.016,inactive: 0.005,inactive: -0.037,inactive: 0,inactive: -0.053,inactive: -0.008,inactive: -0.021,inactive: 0.022,inactive: 0.011
CDC7 (UniProt O00311),inactive: 0.04,inactive: 0.09,inactive: 0.014,inactive: 0.028,inactive: 0.047,inactive: 0.066,inactive: -0.011,inactive: 0.05,inactive: -0.002,inactive: -0.07
CDC26 (UniProt Q8NHZ8),inactive: 0.19,inactive: -0.032,inactive: 0.057,inactive: -0.035,inactive: 0.039,inactive: 0.069,inactive: -0.035,inactive: 0.084,inactive: 0.026,inactive: 0.014
CFAP20 (UniProt Q9Y6A4),inactive: -0.006,inactive: -0.006,inactive: 0.013,inactive: -0.025,inactive: -0.008,inactive: 0.011,inactive: 0.002,inactive: 0.015,inactive: 0.05,inactive: 0.006
CERS6 isoform 2 (UniProt Q6ZMG9),inactive: 0.061,inactive: -0.093,inactive: 0.059,inactive: -0.035,inactive: 0,inactive: -0.029,inactive: -0.066,inactive: 0.016,inactive: 0.097,inactive: -0.04
CDC34 (UniProt P49427),inactive: 0.018,inactive: 0.01,inactive: -0.004,inactive: 0.023,inactive: -0.065,inactive: -0.009,inactive: 0.04,inactive: 0,inactive: 0.017,inactive: -0.101
CDCP1 (UniProt Q9H5V8),inactive: 0.039,inactive: -0.022,inactive: 0.08,inactive: -0.013,inactive: -0.057,inactive: 0.008,inactive: 0.017,inactive: -0.007,inactive: -0.008,inactive: -0.019
CDK2AP1 (UniProt O14519),inactive: 0.284,inactive: -0.065,inactive: -0.031,inactive: -0.059,inactive: 0.08,inactive: -0.114,inactive: 0.08,inactive: 0.064,inactive: 0.119,inactive: 0.104
CDK2 (UniProt P24941),inactive: -0.031,active: 0.362,inactive: -0.038,inactive: 0.006,inactive: -0.036,inactive: -0.026,inactive: -0.016,inactive: -0.017,inactive: -0.003,inactive: -0.015

# Not a retest: entries from further up.
Target,log2 fold change (ibrutinib),log2 fold change [1],log2 fold change (ralimetinib),log2 fold change [2],log2 fold change [3],log2 fold change [4],log2 fold change [5],log2 fold change [6],log2 fold change [7],log2 fold change [8]
CDC42 isoform 1 (UniProt P60953),inactive: -0.011,inactive: -0.022,inactive: -0.02,inactive: -0.049,inactive: -0.017,inactive: -0.037,inactive: 0,inactive: 0.081,inactive: -0.017,inactive: -0.041
CDCA5 (UniProt Q96FF9),inactive: 0.046,inactive: -0.042,inactive: 0.04,inactive: 0.072,inactive: 0.049,inactive: -0.055,inactive: -0.024,inactive: 0.232,inactive: -0.047,inactive: 0.056
CDR2 (UniProt Q01850),inactive: 0.057,inactive: -0.024,inactive: 0.022,inactive: -0.034,inactive: 0.016,inactive: 0.004,inactive: 0.008,inactive: 0.022,inactive: 0.016,inactive: 0.081
